Results reported in publication PMC5025801.
No constants are given. Whether binding was seen depends on the method and setting. Binding seen in cells or lysates may run through a third protein. These calls come from enrichment with a bait or labelling near it, and not all partners need be listed. Values belong to the molecule of their own block, whether it stands above or below them.

Amino acid sequences for entries named in this document (tags omitted). Residues count along the entry.
UniProt P07766, residues 23-207: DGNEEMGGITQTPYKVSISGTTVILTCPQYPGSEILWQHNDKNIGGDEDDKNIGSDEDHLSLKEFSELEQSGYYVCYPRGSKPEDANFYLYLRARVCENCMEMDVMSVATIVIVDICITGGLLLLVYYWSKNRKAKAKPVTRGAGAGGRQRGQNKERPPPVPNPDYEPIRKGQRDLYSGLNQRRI

Target: T1, Oxysterol-binding protein (OSBP)-related protein 4, long variant (ORP4L) (human (endogenous in Jurkat)) (UniProt Q969R2)
T1 sequence: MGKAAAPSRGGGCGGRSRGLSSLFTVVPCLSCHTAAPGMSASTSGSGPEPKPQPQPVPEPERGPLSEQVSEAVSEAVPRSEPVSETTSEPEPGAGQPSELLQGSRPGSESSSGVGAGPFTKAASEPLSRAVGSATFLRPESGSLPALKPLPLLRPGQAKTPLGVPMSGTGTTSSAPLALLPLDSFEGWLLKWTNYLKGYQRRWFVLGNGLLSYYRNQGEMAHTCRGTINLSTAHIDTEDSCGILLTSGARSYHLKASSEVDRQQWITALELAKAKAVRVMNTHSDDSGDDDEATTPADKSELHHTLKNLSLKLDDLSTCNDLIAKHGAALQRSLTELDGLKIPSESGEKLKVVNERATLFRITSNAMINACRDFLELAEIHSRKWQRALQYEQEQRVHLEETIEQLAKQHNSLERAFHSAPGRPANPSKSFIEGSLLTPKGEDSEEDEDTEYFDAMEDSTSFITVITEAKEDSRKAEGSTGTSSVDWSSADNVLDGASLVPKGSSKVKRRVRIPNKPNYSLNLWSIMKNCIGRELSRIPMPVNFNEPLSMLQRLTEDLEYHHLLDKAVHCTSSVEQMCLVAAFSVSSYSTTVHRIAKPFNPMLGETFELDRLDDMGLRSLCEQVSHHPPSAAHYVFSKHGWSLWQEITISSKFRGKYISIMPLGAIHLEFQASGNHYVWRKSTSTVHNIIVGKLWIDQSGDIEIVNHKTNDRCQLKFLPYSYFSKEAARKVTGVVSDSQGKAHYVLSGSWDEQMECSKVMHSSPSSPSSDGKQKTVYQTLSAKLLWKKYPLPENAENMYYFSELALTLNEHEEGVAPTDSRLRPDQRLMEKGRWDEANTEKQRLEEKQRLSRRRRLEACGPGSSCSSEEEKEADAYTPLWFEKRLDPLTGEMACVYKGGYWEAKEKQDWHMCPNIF
Assay: affinity purification with mass spectrometry; anti-ORP4L antibody (rabbit, raised against residues 382-485) or control IgG coupled to CNBr-activated sepharose; total lysates of Jurkat T-cells stimulated with 10 μg/ml anti-CD3 for 5 min; SDS-PAGE, in-gel tryptic digestion, mass spectrometry

binding: binds
Molecule: CD3ɛ (from UniProt P07766 23-207)

binding: binds
B1: PLCβ3 (enzyme, UniProt Q01970 1-1234)
chain: MAGAQPGVHALQLEPPTVVETLRRGSKFIKWDEETSSRNLVTLRVDPNGFFLYWTGPNMEVDTLDISSIRDTRTGRYARLPKDPKIREVLGFGGPDARLEEKLMTVVSGPDPVNTVFLNFMAVQDDTAKVWSEELFKLAMNILAQNASRNTFLRKAYTKLKLQVNQDGRIPVKNILKMFSADKKRVETALESCGLKFNRSESIRPDEFSLEIFERFLNKLCLRPDIDKILLEIGAKGKPYLTLEQLMDFINQKQRDPRLNEVLYPPLRPSQARLLIEKYEPNQQFLERDQMSMEGFSRYLGGEENGILPLEALDLSTDMTQPLSAYFINSSHNTYLTAGQLAGTSSVEMYRQALLWGCRCVELDVWKGRPPEEEPFITHGFTMTTEVPLRDVLEAIAETAFKTSPYPVILSFENHVDSAKQQAKMAEYCRSIFGDALLIEPLDKYPLAPGVPLPSPQDLMGRILVKNKKRHRPSAGGPDSAGRKRPLEQSNSALSESSAATEPSSPQLGSPSSDSCPGLSNGEEVGLEKPSLEPQKSLGDEGLNRGPYVLGPADREDEEEDEEEEEQTDPKKPTTDEGTASSEVNATEEMSTLVNYIEPVKFKSFEAARKRNKCFEMSSFVETKAMEQLTKSPMEFVEYNKQQLSRIYPKGTRVDSSNYMPQLFWNVGCQLVALNFQTLDVAMQLNAGVFEYNGRSGYLLKPEFMRRPDKSFDPFTEVIVDGIVANALRVKVISGQFLSDRKVGIYVEVDMFGLPVDTRRKYRTRTSQGNSFNPVWDEEPFDFPKVVLPTLASLRIAAFEEGGKFVGHRILPVSAIRSGYHYVCLRNEANQPLCLPALLIYTEASDYIPDDHQDYAEALINPIKHVSLMDQRARQLAALIGESEAQAGQETCQDTQSQQLGSQPSSNPTPSPLDASPRRPPGPTTSPASTSLSSPGQRDDLIASILSEVAPTPLDELRGHKALVKLRSRQERDLRELRKKHQRKAVTLTRRLLDGLAQAQAEGRCRLRPGALGGAADVEDTKEGEDEAKRYQEFQNRQVQSLLELREAQVDAEAQRRLEHLRQALQRLREVVLDANTTQFKRLKEMNEREKKELQKILDRKRHNSISEAKMRDKHKKEAELTEINRRHITESVNSIRRLEEAQKQRHDRLVAGQQQVLQQLAEEEPKLLAQLAQECQEQRARLPQEIRRSLLGEMPEGLGDGPLVACASNGHAPGSSGHLSGADSESQEENTQL
